The results in this text go back to PMC7132798.

The target of assay [1] is T1, GST-CC1^95-265 (human) (UniProt Q96G01).
T1 sequence: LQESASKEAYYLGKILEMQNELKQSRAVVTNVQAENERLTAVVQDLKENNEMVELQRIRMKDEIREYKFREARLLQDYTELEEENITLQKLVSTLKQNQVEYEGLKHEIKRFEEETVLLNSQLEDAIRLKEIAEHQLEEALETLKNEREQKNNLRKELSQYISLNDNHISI
Kind of assay: pull-down; GST-CC1^95-265 or GST on GSH resin, incubated 2 h at 4°C with bacterial extracts containing His6-PTPN23 fragments in lysis buffer; anti-His6 blot; only the target purified.

Assay [2] deals with T2, GFP-BICD1^WT (human) (UniProt Q96G01).
T2 sequence: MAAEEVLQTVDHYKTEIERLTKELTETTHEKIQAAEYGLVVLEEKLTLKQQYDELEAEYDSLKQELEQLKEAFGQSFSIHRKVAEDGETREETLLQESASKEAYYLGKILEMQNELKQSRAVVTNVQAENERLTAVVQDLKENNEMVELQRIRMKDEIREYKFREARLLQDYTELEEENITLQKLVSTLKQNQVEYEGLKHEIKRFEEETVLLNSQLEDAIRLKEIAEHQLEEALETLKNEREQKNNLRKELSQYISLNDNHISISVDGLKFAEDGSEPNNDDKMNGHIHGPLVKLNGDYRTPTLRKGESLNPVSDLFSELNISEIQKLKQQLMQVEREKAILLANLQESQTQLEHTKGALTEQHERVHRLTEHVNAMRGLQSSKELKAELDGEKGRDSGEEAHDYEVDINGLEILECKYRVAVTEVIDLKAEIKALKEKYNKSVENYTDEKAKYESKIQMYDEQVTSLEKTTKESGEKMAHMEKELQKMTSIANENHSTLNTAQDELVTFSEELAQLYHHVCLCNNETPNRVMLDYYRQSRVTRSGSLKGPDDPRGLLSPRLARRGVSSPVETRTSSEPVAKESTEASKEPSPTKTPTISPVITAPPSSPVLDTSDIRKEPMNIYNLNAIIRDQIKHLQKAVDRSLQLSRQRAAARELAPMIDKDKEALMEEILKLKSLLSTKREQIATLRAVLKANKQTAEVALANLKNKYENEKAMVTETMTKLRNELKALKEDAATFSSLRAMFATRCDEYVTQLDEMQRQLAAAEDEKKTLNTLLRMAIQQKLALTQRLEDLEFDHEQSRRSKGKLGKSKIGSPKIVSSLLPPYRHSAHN
In words: co-IP; GFP-Trap M beads; lysate of N2A-FLAG-TrkB cells co-transfected with HA-PTPN23 and GFP-BICD1 variants, 0.2% NP-40 lysis buffer, 2 h at 4°C; anti-HA and anti-GFP blots.

Assay [3] deals with T1, GST-CC1^95-265 (human). In words: pull-down; GST-BICD1 fusion proteins on GSH resin, incubated 2 h at 4°C with N2A-FLAG-TrkB lysate containing overexpressed HA-PTPN23 in 0.4% NP-40 lysis buffer; anti-HA blot; only the target purified.

Results are given in words; binding and its absence hold for the method and conditions named. In cells and extracts the contact can be indirect. A result given as binding can be weak or reduced; the word gives no strength. Where a sequence is shown, tags or fusion partners need not be part of it.

As to “His-V/CC^401-653 (human) (domain or fragment)”, the binding entry in assay [1] is on record as “binds”.

Regarding HA-PTPN23 (human), the binding entry in assay [2] and in assay [3] was “binds” throughout.
